Measurements reported in PMC7031342.

Sequences of proteins named here, by UniProt entry; tags and fusion partners are left off.
UniProt Q00765: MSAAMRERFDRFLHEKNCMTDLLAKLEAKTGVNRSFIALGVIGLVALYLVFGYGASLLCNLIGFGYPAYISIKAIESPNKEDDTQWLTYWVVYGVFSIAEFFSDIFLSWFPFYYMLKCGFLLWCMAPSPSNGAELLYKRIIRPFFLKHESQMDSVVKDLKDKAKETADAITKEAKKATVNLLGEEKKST

Target: CnVA-tagged (StrepII-6xHis, 3xFlag) REEP5 (human) (UniProt Q00765)
Test: affinity purification with mass spectrometry; nickel-His purification of CnVA-REEP5 from transfected HEK293 cells against untransfected controls; Q Exactive Plus, iBAQ

B1: ATL3 (HEK293) (protein, UniProt Q6DD88 1-541)
chain: MLSPQRVAAAASRGADDAMESSKPGPVQVVLVQKDQHSFELDEKALASILLQDHIRDLDVVVVSVAGAFRKGKSFILDFMLRYLYSQKESGHSNWLGDPEEPLTGFSWRGGSDPETTGIQIWSEVFTVEKPGGKKVAVVLMDTQGAFDSQSTVKDCATIFALSTMTSSVQIYNLSQNIQEDDLQQLQLFTEYGRLAMDEIFQKPFQTLMFLVRDWSFPYEYSYGLQGGMAFLDKRLQVKEHQHEEIQNVRNHIHSCFSDVTCFLLPHPGLQVATSPDFDGKLKDIAGEFKEQLQALIPYVLNPSKLMEKEINGSKVTCRGLLEYFKAYIKIYQGEDLPHPKSMLQATAEANNLAAAASAKDIYYNNMEEVCGGEKPYLSPDILEEKHCEFKQLALDHFKKTKKMGGKDFSFRYQQELEEEIKELYENFCKHNGSKNVFSTFRTPAVLFTGIVALYIASGLTGFIGLEVVAQLFNCMVGLLLIALLTWGYIRYSGQYRELGGAIDFGAAYVLEQASSHIGNSTQATVRDAVVGRPSMDKKAQ
- binding: binds

Results are given in words; binding and its absence hold for the method and conditions named. In cells and extracts the contact can be indirect. Here binding means that the protein was enriched with, or labelled near, the bait; the list need not be complete.
